Measurements: patent publication US20100150879A1
No constants are given. Whether binding was seen depends on the method and setting. In cells and extracts the contact can be indirect. Some entries that bind do so weakly or less than the wild type.

Target: T1, p120-catenin (p120ctn), endogenous (human) (UniProt O60716)
T1 sequence (looked up): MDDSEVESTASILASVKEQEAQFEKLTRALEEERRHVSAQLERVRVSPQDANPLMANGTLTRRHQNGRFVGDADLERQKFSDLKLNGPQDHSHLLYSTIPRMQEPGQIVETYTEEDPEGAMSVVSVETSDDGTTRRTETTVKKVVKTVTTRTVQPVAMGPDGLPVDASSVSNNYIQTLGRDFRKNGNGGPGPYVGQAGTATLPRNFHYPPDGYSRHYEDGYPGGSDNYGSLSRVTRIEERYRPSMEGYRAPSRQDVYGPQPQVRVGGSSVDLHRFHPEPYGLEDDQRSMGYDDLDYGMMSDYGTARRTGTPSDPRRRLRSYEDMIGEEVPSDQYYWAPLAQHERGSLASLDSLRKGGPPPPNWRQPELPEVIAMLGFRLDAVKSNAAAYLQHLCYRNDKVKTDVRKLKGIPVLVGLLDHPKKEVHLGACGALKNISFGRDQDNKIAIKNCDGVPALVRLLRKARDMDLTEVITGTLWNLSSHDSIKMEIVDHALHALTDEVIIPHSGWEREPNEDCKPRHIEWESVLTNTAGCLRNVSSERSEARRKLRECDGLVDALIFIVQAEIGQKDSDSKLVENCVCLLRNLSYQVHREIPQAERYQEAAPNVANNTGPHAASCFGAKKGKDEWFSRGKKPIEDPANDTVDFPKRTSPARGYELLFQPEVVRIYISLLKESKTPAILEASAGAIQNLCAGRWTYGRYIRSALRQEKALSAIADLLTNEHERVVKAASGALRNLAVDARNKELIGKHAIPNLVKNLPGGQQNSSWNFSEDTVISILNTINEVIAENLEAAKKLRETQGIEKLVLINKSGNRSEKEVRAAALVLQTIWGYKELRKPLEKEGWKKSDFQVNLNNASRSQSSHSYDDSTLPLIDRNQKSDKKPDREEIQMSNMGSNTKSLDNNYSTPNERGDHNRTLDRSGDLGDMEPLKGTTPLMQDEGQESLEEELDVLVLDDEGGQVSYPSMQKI
Assay: co-immunoprecipitation from confluent EC extracts

binding: binds
B1: VE-cadherin, endogenous in hdMVEC (receptor, human, UniProt P33151 48-784, looked up)
chain: DWIWNQMHIDEEKNTSLPHHVGKIKSSVSRKNAKYLLKGEYVGKVFRVDAETGDVFAIERLDRENISEYHLTAVIVDKDTGENLETPSSFTIKVHDVNDNWPVFTHRLFNASVPESSAVGTSVISVTAVDADDPTVGDHASVMYQILKGKEYFAIDNSGRIITITKSLDREKQARYEIVVEARDAQGLRGDSGTATVLVTLQDINDNFPFFTQTKYTFVVPEDTRVGTSVGSLFVEDPDEPQNRMTKYSILRGDYQDAFTIETNPAHNEGIIKPMKPLDYEYIQQYSFIVEATDPTIDLRYMSPPAGNRAQVIINITDVDEPPIFQQPFYHFQLKENQKKPLIGTVLAMDPDAARHSIGYSIRRTSDKGQFFRVTKKGDIYNEKELDREVYPWYNLTVEAKELDSTGTPTGKESIVQVHIEVLDENDNAPEFAKPYQPKVCENAVHGQLVLQISAIDKDITPRNVKFKFILNTENNFTLTDNHDNTANITVKYGQFDREHTKVHFLPVVISDNGMPSRTGTSTLTVAVCKCNEQGEFTFCEDMAAQVGVSIQAVVAILLCILTITVITLLIFLRRRLRKQARAHGKSVPEIHEQLVTYDEEGGGEMDTTSYDVSVLNSVRRGGAKPPRPALDARPSLYAQVQKPPRHAPGAHGGPGEMAAMIEVKKDEADHDGDGPPYDTLHIYGYEGSESIAESLSSLGTDSSDSDVDYDFLNDWGPRFKMLAELYGSDPREELLY
